# PMC5996148
# Some of the results follow. For some of these results: The exact form of the protein is not confirmed.
# Experiments:
# Assay in all cases: protein microarray (ProtoArray v5.0), streptavidin-Alexa Fluor 647
# Details in all cases: 3'-biotin; 20 mM Tris (pH 7.5), 5 mM MgCl2, 100 mM KCl, 0.1% Tween-20, A/T-rich and random oligonucleotide blockers; temperature not stated; high values mean tight binding
# [1] = test system: PPP2R2C (human)
# [2] = test system: PPP3R2 (human)
# [3] = target: T1, PPT1 (UniProt P50897)
# T1 sequence: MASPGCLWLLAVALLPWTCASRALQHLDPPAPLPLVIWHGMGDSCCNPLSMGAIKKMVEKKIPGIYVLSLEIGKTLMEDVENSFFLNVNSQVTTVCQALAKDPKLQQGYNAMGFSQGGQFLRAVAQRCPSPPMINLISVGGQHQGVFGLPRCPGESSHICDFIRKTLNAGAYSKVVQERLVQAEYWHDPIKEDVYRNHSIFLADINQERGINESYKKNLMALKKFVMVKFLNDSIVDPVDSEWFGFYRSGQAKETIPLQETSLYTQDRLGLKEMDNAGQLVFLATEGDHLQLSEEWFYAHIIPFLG
# [4] = test system: PPT2 (human)
# [5] = test system: PRCP (human)
# [6] = test system: PRDX2 (human)
# [7] = test system: PRDX3 (human)
# [8] = test system: PRELI domain-containing protein 2 (human)
# [9] = test system: PRELID1 (human)
# [10] = test system: PRKACB (human)
sequence,measurement,setting,value
GGTGACAGGGGTATGGGGAGGGG [G4-2 biotinylated (Ct1)],binding signal,[1],-0.377 z-score
same,binding signal,[2],-0.377 z-score
same,binding signal,[3],-0.381 z-score
same,binding signal,[4],-0.387 z-score
same,binding signal,[5],-0.377 z-score
same,binding signal,[6],-0.399 z-score
same,binding signal,[7],-0.395 z-score
same,binding signal,[8],-0.385 z-score
same,binding signal,[9],-0.378 z-score
same,binding signal,[10],-0.378 z-score

# At a glance, part of the list above:
sequence,measurement,setting,value
GGTGACAGGGGTATGGGGAGGGG [G4-2 biotinylated (Ct1)],binding signal,[6],-0.399 z-score
same,binding signal,[7],-0.395 z-score
